Data reported in US8546524B2, “Smoothened polypeptides and methods of use” (The United States of America, as represented by the …, priority 2006, dated 2013).
Some of these results come from one statement about several compounds together.

Columns and labels:
Assay in all cases: Growth inhibition, cancer cell line panel (MTT)
Assay type in all cases: cell-based
HCT15 colon cancer cells = details: tested at 0.001-5 μM
PLC hepatoma cells = details: tested at 0.001-5 μM
A549 lung cancer cells = details: tested at 0.001-5 μM
[1] = tested on: Colo205 colon cancer cells; details: tested at 0.001-5 μM
[2] = tested on: HS766T pancreas cancer cells; details: tested at 0.001-5 μM
JM-1 hepatoma cells = details: JM-1 cells; tested at 0.001-5 μM

Measured: GI50

Ac-KFSTHWAYTLK- εPal (all D-) [SMOi2-20]
> 5 µM: HCT15 colon cancer cells | PLC hepatoma cells | A549 lung cancer cells | [1] | [2] | JM-1 hepatoma cells

Pal-LTYAWHTSFK [SMOi2-12]
> 5 µM: HCT15 colon cancer cells | PLC hepatoma cells | A549 lung cancer cells | [1] | [2] | JM-1 hepatoma cells
